This is one part of the list.
Compound: Cc1cccc(CC(=O)N2CCc3c2ccc(-c2cn(C)c4ncnc(N)c24)c3F)n1
Test: log2 fold change, soluble protein after heating vs DMSO (PISA); higher = thermal stabilisation; K562 lysate, 10 uM; active = over 0.2 and 3.5 SD of the protein, either way, in both replicates (recomputed)
Summary of the method: (§1)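 Dounce homogenisation of K562 pellets in PBS pH 7.4 with 1 mM MgCl2 produced a crude extract, used at 1 mg/mL protein. Exposure to 10 μM compound lasted 30 min, and aliquots were then heated for 3 min across 48°C-58°C, pooled and brought to 0.5% NP-40 at 4°C. The supernatant after 21,000xg for 90 min was quantified by TMTpro 16plex LC-MS/MS with channel sums equalised. Duplicate values are given as log-two fold change in thermal stability relative to solvent controls.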

The chains behind the UniProt entries cited, without tags or fusion partners. Where a name states a change or a piece, a line headed by the entry shows the natural chain unless it says otherwise.
UniProt Q9UJS0: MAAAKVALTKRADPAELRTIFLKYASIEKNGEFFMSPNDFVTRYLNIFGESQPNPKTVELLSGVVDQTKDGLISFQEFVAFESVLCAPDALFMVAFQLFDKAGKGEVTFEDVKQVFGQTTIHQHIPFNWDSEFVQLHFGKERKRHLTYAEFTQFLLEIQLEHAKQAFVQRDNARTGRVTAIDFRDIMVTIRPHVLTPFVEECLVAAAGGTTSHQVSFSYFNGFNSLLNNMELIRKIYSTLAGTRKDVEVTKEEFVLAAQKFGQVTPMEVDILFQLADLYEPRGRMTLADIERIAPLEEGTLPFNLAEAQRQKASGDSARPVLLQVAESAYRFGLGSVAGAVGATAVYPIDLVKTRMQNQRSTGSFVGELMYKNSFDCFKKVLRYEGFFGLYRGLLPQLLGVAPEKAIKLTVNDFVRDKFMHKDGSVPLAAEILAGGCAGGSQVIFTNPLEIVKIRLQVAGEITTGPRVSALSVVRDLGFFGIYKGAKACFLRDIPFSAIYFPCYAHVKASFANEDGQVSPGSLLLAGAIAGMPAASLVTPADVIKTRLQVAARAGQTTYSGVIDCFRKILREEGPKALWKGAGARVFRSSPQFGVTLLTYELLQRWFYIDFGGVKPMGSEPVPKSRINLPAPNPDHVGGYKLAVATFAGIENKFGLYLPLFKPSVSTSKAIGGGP
UniProt Q9NVC3: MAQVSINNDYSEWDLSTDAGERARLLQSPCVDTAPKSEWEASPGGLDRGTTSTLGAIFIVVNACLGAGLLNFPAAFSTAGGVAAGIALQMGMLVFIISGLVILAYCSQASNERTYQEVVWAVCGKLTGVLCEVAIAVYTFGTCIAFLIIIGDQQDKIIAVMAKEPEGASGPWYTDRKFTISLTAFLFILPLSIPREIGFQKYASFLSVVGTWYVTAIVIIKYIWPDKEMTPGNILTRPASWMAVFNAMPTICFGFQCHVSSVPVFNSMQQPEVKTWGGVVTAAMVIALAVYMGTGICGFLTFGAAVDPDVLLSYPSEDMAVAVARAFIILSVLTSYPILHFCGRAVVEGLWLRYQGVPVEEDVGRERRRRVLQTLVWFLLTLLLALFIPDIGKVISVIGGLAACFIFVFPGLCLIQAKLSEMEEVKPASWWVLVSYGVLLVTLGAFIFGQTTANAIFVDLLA
UniProt O14975, whole entry, looked up: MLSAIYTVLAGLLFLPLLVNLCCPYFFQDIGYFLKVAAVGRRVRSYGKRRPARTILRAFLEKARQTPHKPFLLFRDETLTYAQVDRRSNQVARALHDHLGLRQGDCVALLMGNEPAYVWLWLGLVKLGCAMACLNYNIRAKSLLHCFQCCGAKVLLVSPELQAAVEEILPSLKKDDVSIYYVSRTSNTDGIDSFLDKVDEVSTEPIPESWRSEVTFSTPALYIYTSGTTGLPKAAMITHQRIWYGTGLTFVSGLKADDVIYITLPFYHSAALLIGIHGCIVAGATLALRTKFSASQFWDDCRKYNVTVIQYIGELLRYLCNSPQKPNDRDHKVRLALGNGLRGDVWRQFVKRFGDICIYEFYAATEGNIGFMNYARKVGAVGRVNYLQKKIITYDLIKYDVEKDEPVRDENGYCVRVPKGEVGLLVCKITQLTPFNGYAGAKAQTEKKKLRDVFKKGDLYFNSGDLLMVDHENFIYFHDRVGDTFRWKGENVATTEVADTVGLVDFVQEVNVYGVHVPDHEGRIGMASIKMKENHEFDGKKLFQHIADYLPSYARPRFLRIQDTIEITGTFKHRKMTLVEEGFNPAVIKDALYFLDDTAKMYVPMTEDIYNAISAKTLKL
UniProt Q9BXS9: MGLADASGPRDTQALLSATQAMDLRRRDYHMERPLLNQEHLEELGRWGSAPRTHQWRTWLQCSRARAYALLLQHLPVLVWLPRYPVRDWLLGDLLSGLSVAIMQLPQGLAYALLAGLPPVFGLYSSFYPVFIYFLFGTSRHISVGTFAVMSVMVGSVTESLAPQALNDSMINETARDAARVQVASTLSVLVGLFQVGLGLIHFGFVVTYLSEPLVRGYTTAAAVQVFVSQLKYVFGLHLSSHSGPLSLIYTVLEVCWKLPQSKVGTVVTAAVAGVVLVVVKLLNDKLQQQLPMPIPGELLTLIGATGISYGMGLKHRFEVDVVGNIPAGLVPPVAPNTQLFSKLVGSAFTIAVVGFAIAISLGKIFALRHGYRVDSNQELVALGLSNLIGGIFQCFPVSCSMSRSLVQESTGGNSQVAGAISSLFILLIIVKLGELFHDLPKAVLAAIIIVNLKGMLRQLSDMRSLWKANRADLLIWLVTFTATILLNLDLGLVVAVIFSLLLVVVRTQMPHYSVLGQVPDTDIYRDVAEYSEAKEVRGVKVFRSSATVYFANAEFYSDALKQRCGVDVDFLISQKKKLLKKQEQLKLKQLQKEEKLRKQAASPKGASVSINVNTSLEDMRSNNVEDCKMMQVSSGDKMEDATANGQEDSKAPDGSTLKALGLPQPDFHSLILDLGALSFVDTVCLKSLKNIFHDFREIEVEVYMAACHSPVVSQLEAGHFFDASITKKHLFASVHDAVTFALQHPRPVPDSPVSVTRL
UniProt P12235: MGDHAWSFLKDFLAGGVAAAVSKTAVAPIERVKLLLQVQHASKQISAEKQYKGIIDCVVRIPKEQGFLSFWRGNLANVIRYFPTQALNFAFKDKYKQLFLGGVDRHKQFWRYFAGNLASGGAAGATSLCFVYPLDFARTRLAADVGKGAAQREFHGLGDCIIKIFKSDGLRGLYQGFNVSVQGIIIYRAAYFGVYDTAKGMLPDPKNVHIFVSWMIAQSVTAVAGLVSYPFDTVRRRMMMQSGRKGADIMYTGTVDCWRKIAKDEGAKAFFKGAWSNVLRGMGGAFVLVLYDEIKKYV
UniProt Q9HBR0: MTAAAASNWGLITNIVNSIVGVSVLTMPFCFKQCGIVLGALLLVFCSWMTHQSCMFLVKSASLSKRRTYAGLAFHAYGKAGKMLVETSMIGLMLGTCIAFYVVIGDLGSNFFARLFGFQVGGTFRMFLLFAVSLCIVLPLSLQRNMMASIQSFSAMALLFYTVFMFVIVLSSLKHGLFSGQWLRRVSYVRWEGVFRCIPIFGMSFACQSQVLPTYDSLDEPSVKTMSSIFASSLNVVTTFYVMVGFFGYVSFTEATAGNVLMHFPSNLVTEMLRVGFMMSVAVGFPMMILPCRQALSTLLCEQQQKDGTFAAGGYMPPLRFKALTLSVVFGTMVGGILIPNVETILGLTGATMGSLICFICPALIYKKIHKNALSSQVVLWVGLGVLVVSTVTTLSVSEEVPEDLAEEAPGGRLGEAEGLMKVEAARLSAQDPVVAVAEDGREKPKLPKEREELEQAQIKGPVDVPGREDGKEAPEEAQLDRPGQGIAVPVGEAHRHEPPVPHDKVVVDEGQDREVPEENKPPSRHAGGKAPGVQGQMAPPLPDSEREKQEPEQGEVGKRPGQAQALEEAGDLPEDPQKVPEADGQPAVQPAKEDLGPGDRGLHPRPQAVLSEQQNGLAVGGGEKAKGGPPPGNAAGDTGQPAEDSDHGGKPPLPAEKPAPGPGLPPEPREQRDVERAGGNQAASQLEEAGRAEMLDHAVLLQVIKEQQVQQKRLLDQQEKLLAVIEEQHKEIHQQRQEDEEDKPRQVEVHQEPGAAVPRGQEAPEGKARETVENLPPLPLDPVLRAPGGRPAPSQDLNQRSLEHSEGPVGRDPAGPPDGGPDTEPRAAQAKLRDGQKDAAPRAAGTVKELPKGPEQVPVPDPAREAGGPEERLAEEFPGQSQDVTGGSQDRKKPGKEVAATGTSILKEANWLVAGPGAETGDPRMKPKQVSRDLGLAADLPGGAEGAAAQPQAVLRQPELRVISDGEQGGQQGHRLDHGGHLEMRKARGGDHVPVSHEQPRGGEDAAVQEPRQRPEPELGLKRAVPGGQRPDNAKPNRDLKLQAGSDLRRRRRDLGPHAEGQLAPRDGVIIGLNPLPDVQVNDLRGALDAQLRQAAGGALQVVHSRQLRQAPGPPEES
UniProt P08195: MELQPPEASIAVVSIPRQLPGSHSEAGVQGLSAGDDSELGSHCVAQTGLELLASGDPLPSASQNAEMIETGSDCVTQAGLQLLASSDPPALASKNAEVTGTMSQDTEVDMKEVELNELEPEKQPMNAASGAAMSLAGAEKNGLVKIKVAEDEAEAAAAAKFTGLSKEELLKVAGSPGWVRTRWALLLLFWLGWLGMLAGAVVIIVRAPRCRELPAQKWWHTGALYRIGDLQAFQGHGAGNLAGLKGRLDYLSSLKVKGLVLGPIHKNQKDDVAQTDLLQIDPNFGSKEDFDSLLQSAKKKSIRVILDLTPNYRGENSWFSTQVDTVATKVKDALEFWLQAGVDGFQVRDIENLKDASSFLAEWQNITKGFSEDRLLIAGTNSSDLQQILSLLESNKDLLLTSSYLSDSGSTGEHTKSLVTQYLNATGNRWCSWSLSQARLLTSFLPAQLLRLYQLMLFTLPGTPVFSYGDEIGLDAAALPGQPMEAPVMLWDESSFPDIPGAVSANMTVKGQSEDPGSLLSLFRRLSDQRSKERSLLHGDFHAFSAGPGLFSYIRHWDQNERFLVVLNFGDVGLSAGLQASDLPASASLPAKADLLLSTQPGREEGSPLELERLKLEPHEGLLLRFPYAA
UniProt Q13485: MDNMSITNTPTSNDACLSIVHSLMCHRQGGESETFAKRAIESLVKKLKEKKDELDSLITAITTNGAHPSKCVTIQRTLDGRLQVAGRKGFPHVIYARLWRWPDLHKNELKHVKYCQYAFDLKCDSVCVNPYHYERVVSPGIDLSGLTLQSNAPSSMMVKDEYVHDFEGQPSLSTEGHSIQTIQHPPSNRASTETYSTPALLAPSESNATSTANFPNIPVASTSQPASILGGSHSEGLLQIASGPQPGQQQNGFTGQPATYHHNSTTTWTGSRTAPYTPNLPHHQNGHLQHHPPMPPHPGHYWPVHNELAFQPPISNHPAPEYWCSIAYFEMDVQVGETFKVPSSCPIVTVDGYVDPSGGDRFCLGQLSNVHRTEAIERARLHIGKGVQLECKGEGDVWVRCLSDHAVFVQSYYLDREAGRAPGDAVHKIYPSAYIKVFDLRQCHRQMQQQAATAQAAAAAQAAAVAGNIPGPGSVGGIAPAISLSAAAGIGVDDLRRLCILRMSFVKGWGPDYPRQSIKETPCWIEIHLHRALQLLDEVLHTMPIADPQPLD
UniProt P48029: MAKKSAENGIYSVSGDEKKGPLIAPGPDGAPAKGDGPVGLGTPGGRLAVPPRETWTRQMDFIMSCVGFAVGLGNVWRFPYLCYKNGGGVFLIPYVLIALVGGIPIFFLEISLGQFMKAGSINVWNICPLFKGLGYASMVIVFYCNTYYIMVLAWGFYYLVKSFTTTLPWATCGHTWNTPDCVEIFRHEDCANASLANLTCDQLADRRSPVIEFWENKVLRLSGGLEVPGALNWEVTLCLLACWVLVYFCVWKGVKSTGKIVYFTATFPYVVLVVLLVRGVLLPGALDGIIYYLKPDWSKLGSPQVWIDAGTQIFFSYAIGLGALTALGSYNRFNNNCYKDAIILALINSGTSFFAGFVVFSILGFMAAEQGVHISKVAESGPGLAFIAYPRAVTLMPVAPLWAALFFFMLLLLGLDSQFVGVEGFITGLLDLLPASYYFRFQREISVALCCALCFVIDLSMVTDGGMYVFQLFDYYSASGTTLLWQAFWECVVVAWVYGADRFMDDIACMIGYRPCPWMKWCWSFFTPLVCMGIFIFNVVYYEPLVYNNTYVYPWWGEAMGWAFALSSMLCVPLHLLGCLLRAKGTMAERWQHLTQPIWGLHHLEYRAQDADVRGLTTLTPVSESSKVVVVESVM
UniProt Q9Y6M5: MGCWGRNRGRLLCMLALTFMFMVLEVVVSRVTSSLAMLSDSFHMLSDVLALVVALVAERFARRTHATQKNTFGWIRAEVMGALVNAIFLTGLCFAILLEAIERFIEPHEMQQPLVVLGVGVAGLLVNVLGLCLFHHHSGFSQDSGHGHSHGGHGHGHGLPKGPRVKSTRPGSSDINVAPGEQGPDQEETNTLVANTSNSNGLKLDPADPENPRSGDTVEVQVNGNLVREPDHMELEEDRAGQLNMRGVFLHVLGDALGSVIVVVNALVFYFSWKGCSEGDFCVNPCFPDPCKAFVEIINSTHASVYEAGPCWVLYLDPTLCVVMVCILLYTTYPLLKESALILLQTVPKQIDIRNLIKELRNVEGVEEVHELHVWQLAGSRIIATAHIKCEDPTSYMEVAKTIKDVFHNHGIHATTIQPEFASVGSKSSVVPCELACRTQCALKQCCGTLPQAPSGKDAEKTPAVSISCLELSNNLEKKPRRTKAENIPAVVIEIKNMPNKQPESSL
UniProt P05141: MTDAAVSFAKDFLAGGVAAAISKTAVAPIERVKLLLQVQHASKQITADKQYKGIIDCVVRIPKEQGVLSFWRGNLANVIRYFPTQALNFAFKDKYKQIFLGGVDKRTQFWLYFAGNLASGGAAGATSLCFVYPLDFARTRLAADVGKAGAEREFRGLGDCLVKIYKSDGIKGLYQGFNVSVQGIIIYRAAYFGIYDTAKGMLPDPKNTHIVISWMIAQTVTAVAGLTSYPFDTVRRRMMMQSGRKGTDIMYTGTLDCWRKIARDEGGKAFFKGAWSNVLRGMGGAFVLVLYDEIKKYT

log2 fold change, inactive:
SLIRP (UniProt Q9GZT3) 0.043
SLC25A13 isoform 2 (UniProt Q9UJS0) 0.018
SLC2A1 (UniProt P11166) -0.037
SLC25A22 (UniProt Q9H936) 0.023
SLC44A2 (UniProt Q8IWA5) -0.105
SLC33A1 (UniProt O00400) 0.004
SLC25A3 isoform 2 (UniProt Q00325) 0.031
SLC38A9 (UniProt Q8NBW4) -0.012
SLC6A6 (UniProt P31641) -0.096
SLC30A7 (UniProt Q8NEW0) 0.059
SLC7A5 (UniProt Q01650) 0.129
SLC38A7 (UniProt Q9NVC3) -0.05
SLC43A3 isoform 2 (UniProt Q8NBI5) -0.05
SLC4A1AP (UniProt Q9BWU0) -0.019
SLC27A2 (UniProt O14975) -0.014
SLC36A4 (UniProt Q6YBV0) 0.162
SLC26A6 (UniProt Q9BXS9) 0.118
SLC25A21 (UniProt Q9BQT8) 0.061
SLC25A4 (UniProt P12235) 0.111
SLC38A10 (UniProt Q9HBR0) 0.091
SLC25A42 (UniProt Q86VD7) 0.079
SMAP (UniProt O00193) -0.008
SLC3A2 isoform 3 (UniProt P08195) 0.011
SLC25A25 isoform 3 (UniProt Q6KCM7) 0.043
SLC9A1 (UniProt P19634) 0.089
SLC4A7 isoform 7 (UniProt Q9Y6M7) -0.078
SLC35A4 (UniProt L0R6Q1) 0.091
SLC9A3R2 (UniProt Q15599) 0.01
SMAD4 (UniProt Q13485) -0.003
SLC6A8 isoform 2 (UniProt P48029) -0.083
SLC4A2 (UniProt P04920) 0.037
SLC30A1 (UniProt Q9Y6M5) 0.006
SLC25A31 (UniProt Q9H0C2) 0.036
SMAP2 (UniProt Q8WU79) -0.032
SLC6A8 (UniProt P48029) 0.116
SLC25A5 (UniProt P05141) -0.102
SLC25A1 (UniProt P53007) 0.037
SMAP1 isoform 2 (UniProt Q8IYB5) -0.067

Compound: Cc1cn(-c2cc(NC(=O)c3ccc(C)c(Nc4nccc(-c5cccnc5)n4)c3)cc(C(F)(F)F)c2)cn1 [nilotinib]
Test: as above
Summary of the method: as §1

log2 fold change, inactive:
SLIRP (UniProt Q9GZT3) 0
SLC25A13 isoform 2 (UniProt Q9UJS0) 0.026
SLC2A1 (UniProt P11166) -0.008
SLC25A22 (UniProt Q9H936) 0.013
SLC44A2 (UniProt Q8IWA5) 0.092
SLC33A1 (UniProt O00400) 0.142
SLC25A3 isoform 2 (UniProt Q00325) 0.024
SLC38A9 (UniProt Q8NBW4) 0.036
SLC6A6 (UniProt P31641) 0.027
SLC30A7 (UniProt Q8NEW0) 0.006
SLC7A5 (UniProt Q01650) 0.022
SLC38A7 (UniProt Q9NVC3) 0.046
SLC43A3 isoform 2 (UniProt Q8NBI5) 0.007
SLC4A1AP (UniProt Q9BWU0) -0.018
SLC27A2 (UniProt O14975) 0.056
SLC36A4 (UniProt Q6YBV0) 0.138
SLC26A6 (UniProt Q9BXS9) 0.057
SLC25A21 (UniProt Q9BQT8) 0.009
SLC25A4 (UniProt P12235) 0.019
SLC38A10 (UniProt Q9HBR0) 0.072
SLC25A42 (UniProt Q86VD7) 0.03
SMAP (UniProt O00193) 0.005
SLC3A2 isoform 3 (UniProt P08195) 0.035
SLC25A25 isoform 3 (UniProt Q6KCM7) 0.027
SLC9A1 (UniProt P19634) -0.098
SLC4A7 isoform 7 (UniProt Q9Y6M7) 0.022
SLC35A4 (UniProt L0R6Q1) 0.126
SLC9A3R2 (UniProt Q15599) -0.001
SMAD4 (UniProt Q13485) 0.032
SLC6A8 isoform 2 (UniProt P48029) 0.1
SLC4A2 (UniProt P04920) 0.025
SLC30A1 (UniProt Q9Y6M5) 0.035
SLC25A31 (UniProt Q9H0C2) 0.014
SMAP2 (UniProt Q8WU79) -0.058
SLC6A8 (UniProt P48029) 0.024
SLC25A5 (UniProt P05141) 0.023
SLC25A1 (UniProt P53007) 0.047
SMAP1 isoform 2 (UniProt Q8IYB5) 0.029
